{"source": "paper PMC9321335", "about": "(Pharmaceutics, 2022)", "experiment": "peptide synthesis", "data": [{"substance": "DOTA-Lys(palmitoyl-Glu-OH)-3PRGD2", "values": [{"measurement": "conjugation yield", "setting": "conjugation step", "result": "~40", "unit": "%"}]}, {"substance": "Lys(palmitoyl-Glu-OH)-3PRGD2", "values": [{"measurement": "step yield", "setting": "lipidation step", "result": "~60", "unit": "%"}]}]}
